# Measured values taken from the supplement of paper PMC8728848.
# The other results are listed elsewhere or left out.
# B1: AT1G77380(17) (Arabidopsis thaliana), Q39134 (protein)
# chain: MVQNHQTVLAVDMPQTGGSKYLDDDGKNKRTGSVWTASAHIITAVIGSGVLSLAWATAQLGWLAGPVVMLLFSAVTYFTSSLLAACYRSGDPISGKRNYTYMDAVRSNLGGVKVTLCGIVQYLNIFGVAIGYTIASAISMMAIKRSNCFHKSGGKDPCHMNSNPYMIAFGLVQILFSQIPDFDQLWWLSILAAVMSFTYSSAGLALGIAQVVVNGKVKGSLTGISIGAVTETQKIWRTFQALGDIAFAYSYSIILIEIQDTVKSPPSEEKTMKKATLVSVSVTTMFYMLCGCMGYAAFGDLSPGNLLTGFGFYNPYWLLDIANAAIVIHLIGAYQVYCQPLFAFIEKQASIQFPDSEFIAKDIKIPIPGFKPLRLNVFRLIWRTVFVIITTVISMLLPFFNDVVGLLGALGFWPLTVYFPVEMYIAQKKIPRWSTRWVCLQVFSLGCLVVSIAAAAGSIAGVLLDLKSYKPFRSEY
# What was measured:
# Assay in all cases: glycan array binding signal (z-score within array); higher = stronger binding
# Conditions in all cases: glycan notation: IUPAC condensed, linker removed
# [1] = molecular target: Neu5Ac(a2-8)Neu5Ac
# Method in brief: (§1)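 The binding signal is a Z-score computed within each array and averaged over linkers. Arrays of the same protein sequence at different concentrations or buffers were also averaged together. Data originate from 3228 arrays in the Consortium for Functional Glycomics database, kept only where the protein sequence was available.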
# [2] = molecular target: Neu5Ac(a2-8)Neu5Ac(a2-3)Gal(b1-3)GalNAc(b1-4)[Neu5Ac(a2-3)]Gal(b1-4)Glc
# Method in brief: as §1
# [3] = molecular target: Neu5Ac(a2-8)Neu5Ac(a2-3)Gal(b1-3)GalNAc(b1-4)[Neu5Ac(a2-8)Neu5Ac(a2-3)]Gal(b1-4)Glc
# Method in brief: as §1
# [4] = molecular target: Neu5Ac(a2-8)Neu5Ac(a2-3)Gal(b1-4)Glc
# Method in brief: as §1
# [5] = molecular target: Neu5Ac(a2-8)Neu5Ac(a2-3)Gal(b1-4)GlcNAc
# Method in brief: as §1
# [6] = molecular target: Neu5Ac(a2-8)Neu5Ac(a2-3)[Gal(b1-3)GalNAc(b1-4)]Gal(b1-4)Glc
# Method in brief: as §1
# [7] = molecular target: Neu5Ac(a2-8)Neu5Ac(a2-3)[GalNAc(b1-4)]Gal(b1-4)Glc
# Method in brief: as §1
# [8] = molecular target: Neu5Ac(a2-8)Neu5Ac(a2-8)Neu5Ac
# Method in brief: as §1
# [9] = molecular target: Neu5Ac(a2-8)Neu5Ac(a2-8)Neu5Ac(a2-3)Gal(b1-4)Glc
# Method in brief: as §1
# [10] = molecular target: Neu5Ac(a2-8)Neu5Ac(a2-8)Neu5Ac(a2-3)[Gal(b1-3)GalNAc(b1-4)]Gal(b1-4)Glc
# Method in brief: as §1
# [11] = molecular target: Neu5Ac(a2-8)Neu5Ac(a2-8)Neu5Ac(a2-3)[GalNAc(b1-4)]Gal(b1-4)Glc
# Method in brief: as §1
# [12] = molecular target: Neu5Ac(a2-8)Neu5Ac(a2-8)Neu5Ac(a2-8)Neu5Ac(a2-3)[GalNAc(b1-4)]Gal(b1-4)Glc
# Method in brief: as §1
# [13] = molecular target: Neu5Ac(a2-8)Neu5Gc(a2-3)Gal(b1-4)GlcNAc
# Method in brief: as §1
# [14] = molecular target: Neu5Ac(b2-6)Gal(b1-4)GlcNAc
# Method in brief: as §1
# [15] = molecular target: Neu5Ac(b2-6)GalNAc
# Method in brief: as §1
# [16] = molecular target: Neu5Ac9Ac(a2-3)Gal(b1-3)GlcNAc
# Method in brief: as §1
# [17] = molecular target: Neu5Ac9Ac(a2-3)Gal(b1-4)GlcNAc
# Method in brief: as §1
# [18] = molecular target: Neu5Ac9Ac(a2-6)Gal(b1-4)GlcNAc
# Method in brief: as §1
# [19] = molecular target: Neu5Gc(a2-3)Gal(b1-3)GlcNAc
# Method in brief: as §1
# [20] = molecular target: Neu5Gc(a2-3)Gal(b1-3)[Fuc(a1-4)]GlcNAc
# Method in brief: as §1
# [21] = molecular target: Neu5Gc(a2-3)Gal(b1-4)Glc
# Method in brief: as §1
# [22] = molecular target: Neu5Gc(a2-3)Gal(b1-4)GlcNAc
# Method in brief: as §1
# [23] = molecular target: Neu5Gc(a2-3)Gal(b1-4)GlcNAc(b1-3)Gal(b1-4)GlcNAc(b1-2)Man(a1-3)[Neu5Gc(a2-3)Gal(b1-4)GlcNAc(b1-3)Gal(b1-4)GlcNAc(b1-2)Man(a1-6)]Man(b1-4)GlcNAc(b1-4)GlcNAc
# Method in brief: as §1
# [24] = molecular target: Neu5Gc(a2-3)Gal(b1-4)[Fuc(a1-3)]GlcNAc
# Method in brief: as §1
# [25] = molecular target: Neu5Gc(a2-6)Gal(b1-4)GlcNAc
# Method in brief: as §1
# [26] = molecular target: Neu5Gc(a2-6)GalNAc
# Method in brief: as §1
# [27] = molecular target: Neu5Gc(a2-8)Neu5Ac(a2-3)Gal(b1-4)GlcNAc
# Method in brief: as §1
# [28] = molecular target: Neu5Gc(a2-8)Neu5Gc(a2-3)Gal(b1-4)GlcNAc
# Method in brief: as §1
# [29] = molecular target: Neu5Gc(a2-8)Neu5Gc(a2-3)Gal(b1-4)GlcNAc(b1-3)Gal(b1-4)GlcNAc
# Method in brief: as §1
# [30] = molecular target: Neu5Gc(a2-8)Neu5Gc(a2-6)Gal(b1-4)GlcNAc
# Method in brief: as §1
# [31] = molecular target: Neu5Gc(b2-6)Gal(b1-4)GlcNAc
# Method in brief: as §1
binder,measurement,setting,value
B1,glycan array binding signal (z-score),[1],-0.347
same,glycan array binding signal (z-score),[2],-0.71
same,glycan array binding signal (z-score),[3],-0.862
same,glycan array binding signal (z-score),[4],-0.804
same,glycan array binding signal (z-score),[5],-0.719
same,glycan array binding signal (z-score),[6],-0.73
same,glycan array binding signal (z-score),[7],-0.843
same,glycan array binding signal (z-score),[8],-0.687
same,glycan array binding signal (z-score),[9],0.184
same,glycan array binding signal (z-score),[10],-0.674
same,glycan array binding signal (z-score),[11],-0.19
same,glycan array binding signal (z-score),[12],-0.092
same,glycan array binding signal (z-score),[13],-0.298
same,glycan array binding signal (z-score),[14],-0.53
same,glycan array binding signal (z-score),[15],-0.776
same,glycan array binding signal (z-score),[16],0.167
same,glycan array binding signal (z-score),[17],1.61
same,glycan array binding signal (z-score),[18],-0.7
same,glycan array binding signal (z-score),[19],2.48
same,glycan array binding signal (z-score),[20],0.666
same,glycan array binding signal (z-score),[21],0.075
same,glycan array binding signal (z-score),[22],0.211
same,glycan array binding signal (z-score),[23],-0.74
same,glycan array binding signal (z-score),[24],-0.363
same,glycan array binding signal (z-score),[25],0.455
same,glycan array binding signal (z-score),[26],1.18
same,glycan array binding signal (z-score),[27],-0.678
same,glycan array binding signal (z-score),[28],-0.839
same,glycan array binding signal (z-score),[29],0.506
same,glycan array binding signal (z-score),[30],-0.946
same,glycan array binding signal (z-score),[31],-0.279

# Retrieved one by one from the entries so far:
binder,measurement,setting,value
B1,glycan array binding signal (z-score),[16],0.167
same,glycan array binding signal (z-score),[7],-0.843
